PubChem BioAssay AID280 (DTP/NCI, 2004)
The list is a part of this screen's results and no random one: it covers a few groups of compounds. Not every dose and run of a compound is shown. T/C is the treated group as % of the vehicle group. Where survival is the endpoint, this PubChem deposit counts one and a half times the control or more as active, and values a quarter to a half above the control carry no call in these data; other NCI protocols may use other cut-offs. Schedule codes are those of the source, taken here to give the interval after Q, in days (D) or hours (H), and the number of doses after X. Some T/C values are marked as having no survivor count here; that says nothing about deaths at the dose.

Test system: nude mice, LOX melanoma ip, survival T/C
Assay: NCI In Vivo Anticancer Drug Screen. Data for tumor model Human Amelanotic Melanoma (LOX) (intraperitoneal) in NU/NU BALB/C (nude) mice
Details: T/C endpoint: median survival time, schedule: Q04DX003 (ip), higher T/C = longer survival
Description: The antitumor activity of compounds was measured in mice bearing transplantable tumors. Survival or tumor size were measured and the results are expressed as the measurement made in the treated group (T) divided by the measurement made in the vehicle treated control group (C). The tumor model used in this assay is Human Amelanotic Melanoma (LOX) (intraperitoneal) in NU/NU BALB/C (nude) mice

SMILES	T/C (dose: 6.25 mg/kg/injection, vehicle: saline + alcohol)	T/C (dose: 12.5 mg/kg/injection, vehicle: saline + alcohol)	T/C (dose: 25.0 mg/kg/injection, vehicle: saline + alcohol)	T/C (dose: 50.0 mg/kg/injection, vehicle: saline + alcohol)	T/C (dose: 100.0 mg/kg/injection, vehicle: saline + alcohol)	T/C (dose: 0.5 mg/kg/injection, vehicle: saline)	T/C (dose: 1.0 mg/kg/injection, vehicle: saline)	T/C (dose: 2.0 mg/kg/injection, vehicle: saline)	T/C (dose: 4.0 mg/kg/injection, vehicle: saline)
CC(O)C1/C=C/C=C/C(=O)OC2CC3OC4C5OC5(C)C(O)CC4(COC(=O)C(O)C(C)CCO1)C2(C)C31CO1 (centres undefined)	117 % of control [survivor count not shown]	121 % of control [survivor count not shown]	128 % of control [survivor count not shown]	153 % of control [survivor count not shown]	165 % of control [survivor count not shown]	–	–	–	–
CC(=O)OCC12CCC(C)=CC1OC1C(O)C(OC(C)=O)C2(C)C12CO2 (centres undefined)	–	–	–	–	–	103 % of control [survivor count not shown]	109 % of control [survivor count not shown]	95 % of control [survivor count not shown]	106 % of control [survivor count not shown]
